Results reported in PubChem BioAssay AID652054 (National Center for Advancing Translational Sciences (NCATS), 2013).
Hit rate of the full screen: of about 360,000 compounds, about 9,100 (2.5%) were called active. The shares of active, inactive and inconclusive entries below differ from those in the screen. No stated cut-off is given here; in the data, active means max response below about -50%; inconclusive means no clear call, values can overlap the other calls; inactive means above that.

Sequences of proteins named here, by UniProt entry; tags and fusion partners are left off.
UniProt P35462, whole entry, looked up: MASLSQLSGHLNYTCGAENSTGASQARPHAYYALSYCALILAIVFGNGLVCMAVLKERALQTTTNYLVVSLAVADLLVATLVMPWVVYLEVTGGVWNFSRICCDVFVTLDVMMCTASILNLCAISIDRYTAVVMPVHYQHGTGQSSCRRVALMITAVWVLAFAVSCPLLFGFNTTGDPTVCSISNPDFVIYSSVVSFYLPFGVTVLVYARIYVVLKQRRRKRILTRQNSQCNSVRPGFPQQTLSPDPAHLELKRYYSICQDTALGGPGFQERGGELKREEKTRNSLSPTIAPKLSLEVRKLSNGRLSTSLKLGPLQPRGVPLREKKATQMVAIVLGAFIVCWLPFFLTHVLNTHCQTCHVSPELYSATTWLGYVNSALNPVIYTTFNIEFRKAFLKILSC

Target: D(3) dopamine receptor (Homo sapiens) (UniProt P35462)
Assay: qHTS of D3 Dopamine Receptor Antagonist: qHTS
Conditions: D3R cells, DiscoveRx beta-arrestin luminescence, antagonist mode; stronger effect = lower value
Procedure, shortened: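 Cells plated overnight at 1500 cells/well, then exposed to library compounds with dopamine controls for 90 minutes at 37 degrees C. DiscoveRx reagent added for 30–60 minutes at room temperature; luminescence read, quantitative HTS format.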
On the % scale 0 is the no-effect control and ±100 the full control effect.

SMILES	max response, negative = inhibition
COc1ccccc1N1CCN(Cc2ccc(Br)cc2)CC1	active: -110%
COC(=O)C1=C(c2ccc(OCc3ccccc3)cc2)C[C@@H]2CC[C@H]1N2C(=O)NC1CCN(Cc2ccccc2)CC1	active: -94.3%
C=CCN1CC[C@]23c4c5ccc(O)c4OC2C(O)CC[C@@]3(O)[C@H]1C5 (stereo partly specified)	inconclusive: -32.7%
CCN(CC)c1ccc(CN(C)CCc2ccc(OC)c(OC)c2)cc1	inconclusive: -33.9%
Cc1cccc(C)c1-n1nnnc1C(c1ccccc1OC(F)(F)F)N1CCC(n2c(=O)[nH]c3ccccc32)CC1 (stereo unspecified)	inactive: 9.31%
COc1ccccc1N1CCN(Cc2cnc(-c3ccccc3)[nH]2)CC1	active: -82.9%
CN1CCN(Cc2cc(C(C)(C)C)c(O)c(C(C)(C)C)c2)CC1	active: -82.1%
O=P(CN1CCN(c2ccccc2)CC1)(N1CCCCC1)N1CCCCC1	inconclusive: -40.4%
COc1ccc(F)cc1C(=O)C1CCCN(Cc2ccc(O)cc2)C1 (stereo unspecified)	active: -65.4%
Nc1c(C(=O)OCc2ccccc2)c2nc3ccccc3nc2n1Cc1cccs1	inactive: -13%
O=C1NC(=O)N(c2ccccc2)C(=O)/C1=C/c1ccc([N+](=O)[O-])s1	inconclusive: -30.2%
COc1ccc2nc(-c3ccc(CN4CCC(n5c(=O)[nH]c6ccccc65)CC4)cc3)c(-c3ccccc3)nc2c1	active: -52.8%
COC(=O)C1=C(C(=O)OC)C2OC1c1cc3ccccc3cc12	active: -58%
CCOC(=O)c1cccc(C2=C(CNC(=O)c3ccc([N+](=O)[O-])cc3)[C@H]3CC[C@@H](C2)N3Cc2ccccc2)c1	active: -97.7%
Fc1ccc2c(c1)nnn2C1CCN(Cc2nnnn2C2CCCCC2)CC1	active: -57.5%
CC[C@@]1(O)C(=O)OCc2c1cc1n(c2=O)Cc2cc3c(NC(=O)CN)cccc3nc2-1	inactive: -3.21%
O=C(Cc1ccccc1)N1CCN(C2CCCC2)CC1	active: -71.8%
CC(C)C[C@H](NP(=O)(O)O[C@@H]1O[C@@H](C)[C@H](O)[C@@H](O)[C@H]1O)C(=O)N[C@@H](Cc1c[nH]c2ccccc12)C(=O)O	inactive: 14.2%
COc1cccc(CNCCc2c[nH]c3ccccc23)c1	active: -54.3%
O=C(O)COc1ccccc1	inconclusive: -33.8%
COC12c3ccccc3-c3ccccc3C1C(C(=O)O)C2C(=O)O (stereo unspecified)	inconclusive: -31.3%
Cc1cc(/C=C2\C(=O)NC(=O)N(c3ccc(Br)cc3)C2=O)c(C)n1-c1cc(C(=O)O)cc(C(=O)O)c1	inconclusive: -33.8%
CN(C)c1ccc(C=C2C(=O)NC(=O)NC2=O)cc1	inactive: -3.05%

Given with each value named: 2 of the compounds above.
O=P(CN1CCN(c2ccccc2)CC1)(N1CCCCC1)N1CCCCC1
  max response, negative = inhibition: inconclusive: -40.4%
CN(C)c1ccc(C=C2C(=O)NC(=O)NC2=O)cc1
  max response, negative = inhibition: inactive: -3.05%

Following part.

SMILES	max response, negative = inhibition
COC(=O)C(O)(c1ccc(NC(=S)NC(=O)c2ccccc2)cc1)C(F)(F)F (stereo unspecified)	inconclusive: -34.2%
CN(Cc1ccccc1)Cc1ccccc1OC(=O)N(C)C	inconclusive: -40%
O=C(c1ccc(CNS(=O)(=O)c2ccccc2)cc1)N1CCC2(CC1)OCCO2	active: -53.4%
COc1cccc(C(=O)C2CCCN(Cc3ccc(F)cc3)C2)c1 (stereo unspecified)	active: -56.4%
COC(=O)C1=C(c2ccc(F)cc2OCc2ccccc2)C[C@@H]2CC[C@H]1N2C(=O)NCc1ccccc1Cl	inconclusive: -48.7%
Brc1ccc(CN2CCNCC2)s1	inconclusive: -34.8%
CCCN1CCc2cc(O)cc3c2[C@H]1Cc1ccc(O)c(O)c1-3	inconclusive: -31.2%
O=Cc1cn(Cc2ccc(Br)cc2)c2ccccc12	inactive: 2.6%
COC(=O)C1=C(c2ccc(OCc3ccccc3)cc2)C[C@@H]2CC[C@H]1N2C(=O)NCc1ccc(OC)cc1	inconclusive: -38.1%
COc1ccc(F)cc1C(=O)C1CCCN(Cc2cnc(C)s2)C1 (stereo unspecified)	inconclusive: -34.2%
C[n+]1c(-c2ccccc2)sc2ccccc21	inactive: 11.1%
O=C1NC(=S)NC(=O)C1=Cc1cccn1-c1ccc(O)cc1	inactive: -14.3%
Cc1ccc(N2C(=O)NC(=O)/C(=C\c3cnc(-c4ccccc4)nc3)C2=O)cc1	inconclusive: -42.6%
COc1ccc(CN2CCCC(C(=O)c3sccc3C)C2)cc1O (stereo unspecified)	active: -73.8%
COc1cc2c(cc1OC)-c1c(OC)c(OC)cc3c1[C@H](C2)N(C)CC3	active: -58.8%
CC(O)(CS(=O)(=O)c1ccccc1)C(=O)Nc1ccc(C(F)(F)F)cc1 (stereo unspecified)	inactive: -20.4%
O=C(COc1ccc2ccc(=O)oc2c1)N1CCC(C(=O)O)(c2ccccc2)CC1	inconclusive: -36.7%
NC(N)=N/N=C/c1ccc(N(c2ccccc2)c2ccccc2)cc1	inconclusive: -31.5%
Oc1cc2c(cc1CN1CCN(c3ccccc3F)CC1)OCO2	active: -95.8%
O=C1C(=O)c2ccccc2-c2ccccc21	active: -67.2%
CC(=O)NC(=O)NC(C)Cc1ccccc1 (stereo unspecified)	inactive: 0%
CN(C)c1ccc(C=C2C(=O)NC(=S)NC2=O)cc1	inactive: -7.57%
